Data published in US8252796B2, “1-butyl-2-hydroxyaralkyl piperazine derivatives and the uses as anti-depression medicine thereof” (CSPC Zhonggi Pharmaceutical Technology (Shijiazhuang) Co. …, priority 2008, dated 2012).

Tested on: mice
Assay: Oral administration acute toxicity in mice
Conditions: male & female, tested form: racemate (erythro), hydrochloride, 2 mol

Structure (SMILES): CCCC[C@@H]([C@H](O)c1ccc2c(Cl)c(OC)ccc2c1)N1CCN(Cc2ccccc2)CC1
- MLD (minimum lethal dosage): more than 2844.7 mg/kg and > 2844.7 mg/kg

Some entries of the source have several records that differ or are many. This is not the full list of results. An entry can have further records. The values listed for one entry do not match, cause unknown; some may be repeats, others may stem from another dose, organism or construct than stated.
